These are yes or no findings as the source states them, for the method shown. In cells and extracts the contact can be indirect. A result given as binding can be weak or reduced; the word gives no strength. For some assays here: Where a sequence is shown, tags or fusion partners need not be part of it.
Tests used:
[1] = biological target: FLAG-tagged wild-type DYRK1A (rat) (UniProt Q63470); assay: co-IP; HEK293 cells transfected 24 h with FLAG-DYRK1A-WT or FLAG-DYRK1A-S529A, HA-14-3-3β, with or without Myc-PPM1B; precipitated with anti-FLAG, blot with anti-HA
[2] = biological target: T1, Myc-PPM1A (UniProt P35813); assay: co-IP; SH-SY5Y cells transfected 24 h with Xpress-DYRK1A, Myc-PPM1A or Myc-PPM1B; lysate precipitated with anti-Myc, blot with anti-Xpress; 1% Nonidet P-40 lysis buffer
T1 sequence: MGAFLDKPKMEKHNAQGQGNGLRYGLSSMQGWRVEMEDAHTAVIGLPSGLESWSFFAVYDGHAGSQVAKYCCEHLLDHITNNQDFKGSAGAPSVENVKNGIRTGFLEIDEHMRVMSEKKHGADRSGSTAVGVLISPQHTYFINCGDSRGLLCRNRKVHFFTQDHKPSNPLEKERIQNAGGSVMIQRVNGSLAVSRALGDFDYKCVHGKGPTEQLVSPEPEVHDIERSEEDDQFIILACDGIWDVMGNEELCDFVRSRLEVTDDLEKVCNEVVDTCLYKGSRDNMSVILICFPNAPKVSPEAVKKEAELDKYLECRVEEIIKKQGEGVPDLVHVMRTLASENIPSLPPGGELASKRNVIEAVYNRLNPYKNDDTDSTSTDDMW

Sequences of proteins named here, by UniProt entry; tags and fusion partners are left off.
UniProt P31946: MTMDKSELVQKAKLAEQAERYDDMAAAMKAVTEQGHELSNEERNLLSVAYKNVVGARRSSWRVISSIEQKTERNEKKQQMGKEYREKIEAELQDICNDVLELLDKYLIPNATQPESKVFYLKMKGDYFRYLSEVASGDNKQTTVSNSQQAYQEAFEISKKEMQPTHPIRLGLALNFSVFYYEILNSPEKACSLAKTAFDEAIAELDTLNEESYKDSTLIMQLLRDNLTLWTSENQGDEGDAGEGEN

Row | Substance | binding [1] | binding [2]
1 | HA-14-3-3β (from UniProt P31946 1-246) | binds | 
2 | Xpress-DYRK1A (pXpress-His6-DYRK1A-WT) (from UniProt Q63470) (enzyme) |  | binds

Source: PMC7948726
